Data as given in US6197768A, “Pyridocarbazole derivatives having cgmp-pde inhibitory activity” (Mochida Pharmaceutical Co., Ltd., priority 1996, dated 2001).
For at least one compound, name, drawing or mass did not settle the structure.

Tested on: PDE type I
Assay: PDE Inhibiting Activity, type I
Assay type: biochemical, dog (canine aorta)
Conditions: PDE type I from canine aorta, 1 μM substrate, pH 7.5; read-out: Inhibition Activity IC50, Type I
Description: On the basis of the method of Lugnier et al. (Biochem. Pharmacol., 35, 1743-1751, 1986), PDE was purified from the aorta in a dog. The canine aorta was minced and homogenized with a Waring Blender and a glass homogenizer in six volumes of a Tris-HCl buffer solution (pH 7.5, 20 mM) containing 2 mM magnesium acetate, 5 mM ethylenediaminetetraacetic acid (EDTA), 100 μg/mL of phenylmethylsulforyl fluoride and 15 mM 2-mercaptoethanol (2-ME), and centrifuged at 1200 xg for 30 min. The supernatant was separated and salted out with ammonium sulfate which was added to 45% saturation. The resulting precipitated fraction was resuspended in a Tris-HCl buffer solution (pH 7.5, 20 mM) containing 2 mM magnesium acetate and 1 mM 2-ME, dialyzed overnight and applied to a DEAE-trisacryl column (DEAE […] M:IBF). By elution with a sodium chloride gradient (0-0.4 M), PDE types V and III were separated from the other isozymes. […]
The thus obtained PDE types V, III and I were measured for their activity in accordance with the method of Thompson et al. (Adv. Cyclic Nucleotide Res., 10, 69-72, 1979) and the method of Wells et al. (Biochim. Biophys. Acta, 384, 430-443, 1975). […] The activity of each test compound was determined as a percentage of the DPE activity measured when it was added as a dimethyl sulfoxide solution (DMSO) and its IC50 (50% inhibition concentration) was calculated by the probit method. […]

In the case of `CC(C)(C)OC(=O)COc1cc2c(=O)c(Cc3cccnc3)cn3c4cc(Br)ccc4c(c1)c23` [Example 103, 9-bromo-2-t-butoxycarbonyl-methyloxy-5-(3-pyridylmethyl)-4H-pyrido [3,2,1-jk]carbazole-4-one], the IC50 is reported as over 30 µM.
